Laboratory results from patent publication US5663295A (Biomeasure Inc., priority 1994, dated 1997).

Assay: Boc solid-phase peptide synthesis; 4-methylbenzhydrylamine-polystyrene resin; diisopropyl carbodiimide, hydroxybenzotriazole hydrate; BOP reagent in solution
Details: whole synthesis, scale 0.64 mmole

Substance: Tyrosyl-D-alanyl-glycyl-AHPPA amide
- isolated mass: 24 mg
